Measured values published in US20100129369A1.
Where a chain is given by its changes, count along the chain named. No constants are given. Whether binding was seen depends on the method and setting. Some binding calls cover weakened binding; strength is not graded here.

What was measured:
[1] = biological target: Human c-Met-Flis-Fc ECD (human); test: ELISA, coated ECD-Fc
[2] = biological target: Human c-Met Sema Domain with Flis tag (human) (UniProt P08581); test: method not given
[3] = biological target: Human c-Met-Flis-Fc ECD (human); test: SPR Biacore
[4] = biological target: Cynomolgus Monkey c-Met-Flis-Fc ECD (cynomolgus monkey); test: SPR Biacore

Measured: binding

B1: C8-6 (antibody, human IgG2, kappa, V domains shown)
VH: QVQLVQSGAEVKKPGASVKVSCKASGYTFTDYYMHWVRQAPGQGLEWMGRVNPNRGGTTYNQKFEGRVTMTTDTSTSTAYMELRSLRSDDTAVYYCARTNWLDYWGQGTTVTVSS
VL: DIQMTQSPSSLSASVGDRVTITCSVSSSVSSIYLHWYQQKPGKAPKLLIYSTSNLASGVPSRFSGSGSGTDFTLTISSLQPEDFATYYCIQYSGYPLTFGGGTKVEIKR
binds: [1] | [2] | [3] | [4]

B2: C8-co-16 (antibody, human IgG2, kappa, V domains shown)
VH: B1 VH with N54Y, G57S, T99A, W101I
VL: B1 VL with S30R, I90Q, Q91V, S93R
binds: [1] | [2] | [3] | [4]
